PubChem BioAssay AID1159584, Peter MacCallum Cancer Centre | 2016
Shown is an unselected part of about 18,000 deposited reagents. The numbers tell different reagents against one gene apart. No sequences are given here. Not given: the amount of reagent, the time to read-out.

Aim: 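Genes that CDH1-null MCF10A cells selectively depend on to survive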 (primary screen)
Cells: human MCF10A breast epithelial cells, parental and CDH1-null
Reagent: siRNA against human genes
Read-out: 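ATP luminescence (CellTiter-Glo) viability per line relative to mean mock wells over all plates, and the ratio of CDH1-null to parental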
Direction: CDH1-null / parental viability ratio: higher = CDH1-null cells survive relatively better than parental; CDH1-null viability vs mock: higher = more viable CDH1-null cells; parental viability vs mock: higher = more viable parental cells

| target | reagent | CDH1-null / parental viability ratio | CDH1-null viability vs mock (fraction of mock) | parental viability vs mock (fraction of mock) |
| --- | --- | --- | --- | --- |
| MBOAT1 | 1 | 1.35 | 0.84 | 0.62 |
| PLD6 | 1 | 1.28 | 0.78 | 0.61 |
| BPIFB1 | 1 | 0.95 | 0.61 | 0.64 |
| RNFT1 | 1 | 0.76 | 0.55 | 0.72 |
| DPY30 | 1 | 1.01 | 0.89 | 0.88 |
| RRP12 | 1 | 1.03 | 0.72 | 0.7 |
| STARD13 | 1 | 1.1 | 0.68 | 0.62 |
| MYO15A | 1 | 1 | 0.75 | 0.75 |
| KRT8 | 1 | 1.03 | 1.04 | 1.01 |
| RPS14 | 1 | 1.23 | 0.32 | 0.26 |
| KLK1 | 1 | 1.08 | 0.8 | 0.74 |
| IL23A | 1 | 0.88 | 0.56 | 0.64 |
| TP53INP1 | 1 | 1.25 | 0.45 | 0.36 |
| ZG16B | 1 | 1.3 | 0.52 | 0.4 |
| PTPN20 | 1 | 1.31 | 0.92 | 0.7 |
| PTPN20 | 2 | 1.09 | 0.94 | 0.86 |
| WWTR1 | 1 | 1.02 | 0.87 | 0.85 |
| IVD | 1 | 1.3 | 1.13 | 0.87 |
| SCEL | 1 | 0.93 | 0.84 | 0.9 |
| DYNLL2 | 1 | 1 | 0.8 | 0.8 |
| IZUMO4 | 1 | 1.17 | 0.62 | 0.53 |
| CYP4X1 | 1 | 0.88 | 0.77 | 0.88 |
| VWA7 | 1 | 0.84 | 0.76 | 0.9 |
| LIPJ | 1 | 1.11 | 1.07 | 0.96 |
| ZNF540 | 1 | 0.89 | 0.51 | 0.57 |
| COG4 | 1 | 0.81 | 0.6 | 0.74 |
| SGCG | 1 | 0.88 | 0.74 | 0.84 |
| MGA | 1 | 0.84 | 0.42 | 0.5 |

Targets listed so far whose target name begins with D or d (2):
| target | reagent | CDH1-null / parental viability ratio | CDH1-null viability vs mock (fraction of mock) | parental viability vs mock (fraction of mock) |
| --- | --- | --- | --- | --- |
| DPY30 | 1 | 1.01 | 0.89 | 0.88 |
| DYNLL2 | 1 | 1 | 0.8 | 0.8 |
